The record followed here is US20190062399A1.

For this test, the target named is Protein A eluate of the HIC cleaning peak (mixture of all CTLA4-Ig species) (human). As to the kind of experiment: Protein A affinity chromatography.

Results are given in words; binding and its absence hold for the method and conditions named. Some entries that bind do so weakly or less than the wild type.

Turning to “Protein A (immobilised on chromatography resin) (from UniProt P38507 37-327)”, the binding result is recorded as “binds”.
